# Measurements reported in publication PMC5996148.
# The other results are listed elsewhere or left out.
# Columns and labels:
# Assay in all cases: protein microarray (ProtoArray v5.0), streptavidin-Alexa Fluor 647
# Conditions in all cases: 3'-biotin; 20 mM Tris (pH 7.5), 5 mM MgCl2, 100 mM KCl, 0.1% Tween-20, A/T-rich and random oligonucleotide blockers; temperature not stated; high values mean tight binding
# [1] = tested on: DNA repair protein XRCC4 (human)
# [2] = tested on: DNA replication complex GINS protein PSF3 (human)
# [3] = tested on: DNA-binding protein Ikaros (human)
# [4] = tested on: DNA-directed RNA polymerase II subunit RPB11-a (human)
# [5] = tested on: DNA-directed RNA polymerase II subunit RPB11-b1 (human)
# [6] = tested on: DNA-directed RNA polymerase III subunit RPC9 (human)
# [7] = tested on: DNA-directed RNA polymerases I, II, and III subunit RPABC5 (human)
# DNAI2 (human) = tested on: DNAI2 (human)
# DNAJB2 (human) = tested on: DNAJB2 (human)
# DNAJC12 (human) = tested on: DNAJC12 (human)
sequence,measurement,setting,value
GGGAGGCTGAGGCAGG [G4-1 biotinylated (PQS2)],binding signal,[1],-0.29 z-score
same,binding signal,[2],-0.359 z-score
same,binding signal,[3],-0.269 z-score
same,binding signal,[4],-0.305 z-score
same,binding signal,[5],-0.283 z-score
same,binding signal,[6],-0.317 z-score
same,binding signal,[7],-0.278 z-score
same,binding signal,DNAI2 (human),-0.326 z-score
same,binding signal,DNAJB2 (human),-0.305 z-score
same,binding signal,DNAJC12 (human),-0.347 z-score

# Some of the entries above, set out differently:
sequence	measurement	setting	value
GGGAGGCTGAGGCAGG [G4-1 biotinylated (PQS2)]	binding signal	[3]	-0.269 z-score
same	binding signal	[5]	-0.283 z-score
